For test [1], the target named is Mad2-FLAG (S. cerevisiae (SK1)) (UniProt P40958). Nature of the test: affinity purification with mass spectrometry; anti-FLAG M2 on Protein G Dynabeads, lysate of meiotic SK1 cells harvested 75 min after release from a prophase I arrest (prometaphase/metaphase I); against a no-tag control; buffer H0.15M (25 mM HEPES pH 8, 150 mM KCl, 0.1% NP-40), 4°C, 2.5 h; three biological replicates.

The chains behind the UniProt entries cited, without tags or fusion partners.
UniProt P40460: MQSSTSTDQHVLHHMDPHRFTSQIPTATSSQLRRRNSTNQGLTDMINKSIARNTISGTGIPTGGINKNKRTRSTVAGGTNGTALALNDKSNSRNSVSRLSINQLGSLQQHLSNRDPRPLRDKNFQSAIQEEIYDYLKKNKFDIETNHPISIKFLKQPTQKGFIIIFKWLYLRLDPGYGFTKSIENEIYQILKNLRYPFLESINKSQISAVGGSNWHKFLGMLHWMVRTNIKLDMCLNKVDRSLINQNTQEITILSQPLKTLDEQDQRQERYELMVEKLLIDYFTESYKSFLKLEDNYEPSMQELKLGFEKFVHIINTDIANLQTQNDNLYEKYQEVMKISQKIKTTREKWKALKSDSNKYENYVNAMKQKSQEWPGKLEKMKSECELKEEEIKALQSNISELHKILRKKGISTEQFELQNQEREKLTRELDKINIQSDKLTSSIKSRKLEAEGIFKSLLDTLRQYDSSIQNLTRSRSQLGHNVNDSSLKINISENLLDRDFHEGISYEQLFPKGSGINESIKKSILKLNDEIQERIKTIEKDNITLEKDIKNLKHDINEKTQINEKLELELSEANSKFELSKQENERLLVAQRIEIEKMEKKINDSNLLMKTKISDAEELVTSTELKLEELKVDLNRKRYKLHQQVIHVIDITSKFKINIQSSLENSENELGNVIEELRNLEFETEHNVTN
UniProt P38903: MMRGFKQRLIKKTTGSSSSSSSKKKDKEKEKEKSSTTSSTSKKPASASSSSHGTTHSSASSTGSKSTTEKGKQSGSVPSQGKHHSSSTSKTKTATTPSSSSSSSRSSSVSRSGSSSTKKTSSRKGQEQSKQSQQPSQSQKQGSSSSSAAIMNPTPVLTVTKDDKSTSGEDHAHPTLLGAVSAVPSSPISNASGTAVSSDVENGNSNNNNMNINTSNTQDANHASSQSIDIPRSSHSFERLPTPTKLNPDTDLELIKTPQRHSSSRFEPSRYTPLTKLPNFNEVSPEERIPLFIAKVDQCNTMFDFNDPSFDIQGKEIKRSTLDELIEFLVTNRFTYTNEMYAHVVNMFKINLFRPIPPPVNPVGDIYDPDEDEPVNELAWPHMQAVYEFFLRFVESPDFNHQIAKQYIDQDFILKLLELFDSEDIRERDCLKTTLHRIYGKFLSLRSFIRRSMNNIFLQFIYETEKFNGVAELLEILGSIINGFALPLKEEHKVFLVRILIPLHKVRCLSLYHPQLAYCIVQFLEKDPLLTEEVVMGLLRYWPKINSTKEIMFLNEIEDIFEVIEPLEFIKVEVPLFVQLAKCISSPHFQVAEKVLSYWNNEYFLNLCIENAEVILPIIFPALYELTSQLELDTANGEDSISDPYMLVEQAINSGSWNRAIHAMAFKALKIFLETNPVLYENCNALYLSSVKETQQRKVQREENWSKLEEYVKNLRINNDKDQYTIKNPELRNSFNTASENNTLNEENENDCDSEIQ
UniProt P09733: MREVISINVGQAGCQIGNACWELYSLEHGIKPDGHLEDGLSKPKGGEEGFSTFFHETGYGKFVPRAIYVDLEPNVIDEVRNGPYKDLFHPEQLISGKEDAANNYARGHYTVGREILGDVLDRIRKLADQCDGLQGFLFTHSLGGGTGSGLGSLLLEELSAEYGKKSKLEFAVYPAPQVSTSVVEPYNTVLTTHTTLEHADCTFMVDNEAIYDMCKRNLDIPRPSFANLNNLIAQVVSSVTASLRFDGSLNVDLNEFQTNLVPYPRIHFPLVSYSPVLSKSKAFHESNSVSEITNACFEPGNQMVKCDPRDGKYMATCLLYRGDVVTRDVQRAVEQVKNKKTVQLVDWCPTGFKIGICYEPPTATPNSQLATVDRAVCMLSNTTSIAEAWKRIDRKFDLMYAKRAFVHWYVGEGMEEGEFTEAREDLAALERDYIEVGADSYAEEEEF
UniProt P02557: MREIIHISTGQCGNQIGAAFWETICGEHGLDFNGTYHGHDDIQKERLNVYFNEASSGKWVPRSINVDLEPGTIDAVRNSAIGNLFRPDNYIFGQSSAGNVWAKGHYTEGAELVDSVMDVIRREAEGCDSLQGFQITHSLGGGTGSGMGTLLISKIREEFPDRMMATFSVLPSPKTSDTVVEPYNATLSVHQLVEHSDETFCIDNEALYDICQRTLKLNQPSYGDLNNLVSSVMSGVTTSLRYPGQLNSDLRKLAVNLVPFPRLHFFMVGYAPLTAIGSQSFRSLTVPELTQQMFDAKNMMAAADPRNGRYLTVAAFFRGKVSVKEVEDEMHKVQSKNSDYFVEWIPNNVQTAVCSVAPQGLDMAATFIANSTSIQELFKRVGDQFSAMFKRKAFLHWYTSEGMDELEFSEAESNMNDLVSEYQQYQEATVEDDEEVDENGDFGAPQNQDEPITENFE
UniProt P09734: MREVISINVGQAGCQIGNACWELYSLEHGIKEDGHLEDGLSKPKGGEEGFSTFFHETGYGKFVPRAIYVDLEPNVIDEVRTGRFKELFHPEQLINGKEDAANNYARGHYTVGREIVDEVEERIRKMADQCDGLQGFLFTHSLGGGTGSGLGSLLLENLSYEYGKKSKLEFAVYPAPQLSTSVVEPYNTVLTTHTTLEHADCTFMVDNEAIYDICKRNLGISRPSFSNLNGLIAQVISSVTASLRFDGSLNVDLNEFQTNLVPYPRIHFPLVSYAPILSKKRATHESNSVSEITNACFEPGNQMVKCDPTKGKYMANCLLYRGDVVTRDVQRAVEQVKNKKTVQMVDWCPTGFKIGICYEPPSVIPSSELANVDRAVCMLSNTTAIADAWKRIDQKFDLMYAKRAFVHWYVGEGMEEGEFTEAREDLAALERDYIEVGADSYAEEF

In test [2] the target is T1, Mad3-FLAG (S. cerevisiae (SK1)) (UniProt P47074).
T1 sequence: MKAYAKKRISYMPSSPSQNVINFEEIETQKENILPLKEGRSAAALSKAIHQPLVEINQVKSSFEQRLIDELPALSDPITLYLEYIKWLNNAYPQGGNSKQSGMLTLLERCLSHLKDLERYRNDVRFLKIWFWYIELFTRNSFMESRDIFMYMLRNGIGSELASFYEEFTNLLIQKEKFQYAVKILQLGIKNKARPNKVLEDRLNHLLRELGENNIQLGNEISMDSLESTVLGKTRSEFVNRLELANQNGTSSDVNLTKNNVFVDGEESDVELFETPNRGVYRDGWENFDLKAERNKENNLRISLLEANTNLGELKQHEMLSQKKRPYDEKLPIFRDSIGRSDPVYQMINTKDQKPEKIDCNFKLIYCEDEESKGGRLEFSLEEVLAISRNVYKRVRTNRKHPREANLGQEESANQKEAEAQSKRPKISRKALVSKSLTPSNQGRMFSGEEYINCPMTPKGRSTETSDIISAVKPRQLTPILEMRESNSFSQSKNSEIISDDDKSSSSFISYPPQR
Described as above.

For test [3], the target named is T2, Mad2-FLAG (S. cerevisiae (SK1)), P40958.
T2 chain: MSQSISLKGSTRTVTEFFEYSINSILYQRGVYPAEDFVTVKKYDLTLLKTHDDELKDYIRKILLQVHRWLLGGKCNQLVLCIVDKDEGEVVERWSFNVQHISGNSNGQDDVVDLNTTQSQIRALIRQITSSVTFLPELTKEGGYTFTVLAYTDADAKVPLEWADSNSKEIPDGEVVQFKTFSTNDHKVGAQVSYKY
The test is described as above. Conditions: remark: other sources report otherwise.

Test [4] concerns the target T1, Mad3-FLAG (S. cerevisiae (SK1)). In words: affinity purification with mass spectrometry; anti-FLAG M2 on Protein G Dynabeads, Mad3-FLAG from cells arrested in metaphase I by depletion of Cdc20 (pCLB2-CDC20), harvested 6 h after inducing sporulation; wild-type and mad2Δ cells compared; buffer H0.15M, 4°C.

These are yes or no findings as the source states them, for the method shown. Binding seen in cells or lysates may run through a third protein. A yes stands for co-enrichment or nearness to the bait. Other partners may have been found. For some assays here: No binding means not detected with the bait. For some assays here: Where a sequence is shown, tags or fusion partners need not be part of it.

Ndc80 (from UniProt P40460 1-691): the results for the binding result in test [1] and in test [2] were “binds” and “no binding”, respectively.

As to “Rts1, a subunit of PP2A-B56 (from UniProt P38903 1-757)”, the binding result in test [2] is reported as “binds”. On the same count and under the same terms, the same measure for Tub1 (from UniProt P09733 1-447): “binds”; for Tub2 (from UniProt P02557 1-457): “binds”; for Tub3 (from UniProt P09734 1-445): “binds”.

B1: Ptc3 (enzyme, UniProt P34221 1-468)
chain: MGQILSNPIIDKEHHSGTDCLTAFGLCAMQGWRMSMEDAHIVEPNLLAESDEEHLAFYGIFDGHGGSSVAEFCGSKMISILKKQESFKSGMLEQCLIDTFLATDVELLKDEKLKDDHSGCTATVILVSQLKKLLICANSGDSRTVLSTGGNSKAMSFDHKPTLLSEKSRIVAADGFVEMDRVNGNLALSRAIGDFEFKSNTKLGPHEQVVTCVPDIICHNLNYDEDEFVILACDGIWDCLTSQECVDLVHYGISQGNMTLSDISSRIVDVCCSPTTEGSGIGCDNMSISIVALLKENESESQWFERMRSKNYNIQTSFVQRRKSIFDFHDFSDDDNEVFAITTKKLQDRLNRSKDNDDMEIDDLDTELGSSATPSKLSGEDRTGPIDLFSLEALLEAGIQIRQRPSSDSDGNTSYFHGASLSDMLASLSNAAAGETEPNDADDNDDNDGEENGKNENAKKGSKIEEIE
Regarding B1, in test [2], the binding result is “binds”.

B2: Bub3 (protein, UniProt P26449 1-341)
chain: MQIVQIEQAPKDYISDIKIIPSKSLLLITSWDGSLTVYKFDIQAKNVDLLQSLRYKHPLLCCNFIDNTDLQIYVGTVQGEILKVDLIGSPSFQALTNNEANLGICRICKYGDDKLIAASWDGLIEVIDPRNYGDGVIAVKNLNSNNTKVKNKIFTMDTNSSRLIVGMNNSQVQWFRLPLCEDDNGTIEESGLKYQIRDVALLPKEQEGYACSSIDGRVAVEFFDDQGDDYNSSKRFAFRCHRLNLKDTNLAYPVNSIEFSPRHKFLYTAGSDGIISCWNLQTRKKIKNFAKFNEDSVVKIACSDNILCLATSDDTFKTNAAIDQTIELNASSIYIIFDYEN
As for B2, the binding entry in test [2] is “binds”.

B3: Mad3^BUBR1, P47074 1-515 (protein)
chain: T1 sequence
As to B3, the binding result in test [3] is reported as “no binding”.

B4: Ptc7 (enzyme, UniProt P38797 40-343)
chain: YQSNNSHGDAYSSGSQSGPFTYKTAVAFQPKDRDDLIYQKLKDSIRSPTGEDNYFVTSNNVHDIFAGVADGVGGWAEHGYDSSAISRELCKKMDEISTALAENSSKETLLTPKKIIGAAYAKIRDEKVVKVGGTTAIVAHFPSNGKLEVANLGDSWCGVFRDSKLVFQTKFQTVGFNAPYQLSIIPEEMLKEAERRGSKYILNTPRDADEYSFQLKKKDIIILATDGVTDNIATDDIELFLKDNAARTNDELQLLSQKFVDNVVSLSKDPNYPSVFAQEISKLTGKNYSGGKEDDITVVVVRVD
As for B4, the binding entry in test [4] and in test [2] was “binds” in each case.

Source of the values: publication PMC7617576.
